Experimental data published in US20240352429A1, “AGENT FOR INDUCING VIRAL VECTOR PRODUCTION” (priority 2021, published 2024).

Tested on: suspension HEK293 cells (FreeStyle 293F cell)
Assay type: cell-based
Conditions: added 4 hours after introduction of the nucleic acid, DMSO as solubilizer, nocodazole 500 nM, benzimidazoles 50 μM, 5 μM, vinblastine sulfate, colcemid, taxanes 5 μM, 100 nM, FIG. 3 to 7

## CN[C@H]1CCc2cc(OC)c(OC)c(OC)c2-c2ccc(OC)c(=O)cc21 [colcemid]
  titer of adeno-associated virus vector in the cell-derived sample, various cell growth inhibitors A: improved
